# The other results are listed elsewhere or left out. Shown are side measurements of this screen, not its main read-out; they come without a call. Compounds called inactive in the main read-out are mostly missing here. Potencies come from curve fits of mixed quality, noted in brackets.
# Assay: qHTS Assay for Modulators of Lamin A Splicing
# Conditions: HeLa LMNA splicing GFP/RFP minigene ratio, 48 h
# How it was run: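 S3 HeLa stable clones carrying a lamin A-EGFP splicing minigene plus DsRed2 were seeded at 600 cells/well in Opti-MEM with 2% FBS, pin-dosed and incubated 48 h at 37°C. Acumen cytometry (488 nm) gave the GFP/RFP total-intensity ratio.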
# [1] = measured here: GFP splicing reporter channel
# [2] = measured here: RFP viability control channel
SMILES,AC50 [1],AC50 [2]
Cc1ccc(NC(=O)c2c(C(F)(F)F)nn(C)c2SCc2ccc(Cl)cc2)cc1C,"28.2 µM [rising, single point]",
CS(=O)(=O)N(Cc1ccc(C(=O)NCCSc2ccccn2)cc1)c1ccccc1,,"5.62 µM [rising, full curve]"
COC(=O)c1ccc(=O)n(CC(=O)c2ccc(Cl)cc2)c1,,"35.5 µM [rising, single point]"
Cc1cc(NC(=O)c2cccc(S(=O)(=O)N3CC(c4ccccc4)CC3=O)c2)no1 (stereo unspecified),,"12.6 µM [rising, partial curve]"
CCOc1ccc(C2CC(=O)Nc3nc(SCc4ccccc4C)[nH]c(=O)c32)cc1OC (stereo unspecified),"14.1 µM [falling, partial curve, poor fit]","11.2 µM [falling, partial curve]"
CCC(C)/C(C)=N/NC(=O)CSc1nc2ccccc2[nH]1 (stereo unspecified),,"3.98 µM [rising, partial curve, poor fit]"
COc1ccc(-c2cc(-c3ccccc3)n[nH]2)c(O)c1,"35.5 µM [falling, single point]",
CN(CC(=O)Nc1ccc(N2CCOCC2)cc1)CC(=O)Nc1ccc(C(F)(F)F)cc1,"11.2 µM [falling, partial curve]","28.2 µM [falling, partial curve]"
Cc1[nH]c2ccccc2c1/C=C/C(=O)c1ccccc1,,"25.1 µM [rising, single point]"
CC1(c2ccc3ccccc3c2)NC(=O)N(CC(=O)NCc2cccs2)C1=O (stereo unspecified),,"14.1 µM [rising, partial curve]"
Cc1c(Cl)cccc1NC(=O)Cn1c(=O)cc(C)c2c(C)nn(-c3cccc(F)c3)c21,,"35.5 µM [rising, single point]"
CCCNC(=O)Cn1nc(-c2ccc(C)cc2)c2cnc3ccc(CC)cc3c21,"7.94 µM [falling, partial curve, poor fit]","22.4 µM [falling, partial curve, poor fit]"
CCCc1nc2ccccc2c(C(=O)OCC(=O)NCc2ccc3c(c2)OCO3)c1CC,"12.6 µM [rising, partial curve, poor fit]","31.6 µM [rising, single point]"
COc1ccc(C2C=C(c3ccccc3)Nc3nnnn32)cc1 (stereo unspecified),,"31.6 µM [rising, single point]"
CN1CCCN(C(=O)C2CCCCC2)CC1,,"0.0501 µM [rising, full curve, poor fit]"
COc1ccc(N2Cc3ccccc3C2=NC(=O)c2cncc(Br)c2)cc1,"0.0501 µM [rising, full curve, poor fit]","0.0501 µM [rising, full curve, poor fit]"
CCc1noc(C)c1C(=O)Nc1nc(-c2ccc(Cl)cc2Cl)cs1,,"12.6 µM [rising, partial curve]"

SMILES,AC50 [1],AC50 [2]
CN(C)c1ncnc2ccc(-c3cccc(NS(C)(=O)=O)c3)cc12,"11.2 µM [falling, partial curve]","11.2 µM [falling, partial curve]"
Cc1n[nH]c(C)c1S(=O)(=O)N1CCCC(C(=O)N2CCN(c3ccc(Cl)cc3)CC2)C1 (stereo unspecified),"2.24 µM [rising, partial curve]","12.6 µM [rising, partial curve]"
O=C1C(Cc2cccc([N+](=O)[O-])c2)SC(=Nc2ccccc2)N1c1ccccc1 (stereo unspecified),,"7.94 µM [rising, single point]"
COc1ccc(-c2nc3cnc(Nc4ccccc4)nc3n(C[C@H]3CCCO3)c2=O)cc1,"22.4 µM [falling, partial curve]","22.4 µM [falling, partial curve]"
COc1cccc(Nc2ncc3nc(C)c(=O)n(Cc4cccs4)c3n2)c1,"10 µM [falling, partial curve]","11.2 µM [falling, partial curve]"
CCCCNC(=S)NNC(=O)c1csc(C)c1C,"35.5 µM [rising, single point]",
O=C(Nc1nc2ccc(F)cc2s1)c1cccc(S(=O)(=O)N2CCc3ccccc32)c1,,"22.4 µM [rising, single point]"
Cc1noc(C)c1C(=O)OCC(=O)c1cc(C)n(Cc2ccccc2Cl)c1C,,"17.8 µM [rising, single point]"
COc1ccccc1C(=O)NCC(c1ccc(N(C)C)cc1)N1CCc2ccccc21 (stereo unspecified),"12.6 µM [falling, single point]",
CCN(CC)S(=O)(=O)c1ccc(Cl)c(NC(=O)c2ccc(C#N)cc2)c1,,"25.1 µM [rising, single point]"
N=C(N)c1ccc(OCCCCCOc2ccc(C(=N)N)cc2)cc1 (tested in a mixture with another compound),"35.5 µM [falling, single point]","25.1 µM [falling, single point]"
CCOc1cc(NC(=S)NCC2CCCO2)c(OCC)cc1NC(=O)c1ccc(OC)cc1 (stereo unspecified),,"35.5 µM [rising, single point]"
O=C(COc1ccc(Cl)cc1Cl)NN=C1c2ccccc2-c2ccccc21,,"2.24 µM [rising, partial curve, poor fit]"
Cc1cc(C)c(NC(=O)CN)c(C)c1,"22.4 µM [falling, partial curve, poor fit]","22.4 µM [falling, partial curve, poor fit]"
CC(C)=C1C2CCC1C1C(=O)N(NC(=O)COc3ccc(C(C)(C)C)cc3)C(=O)C21 (stereo unspecified),,"15.8 µM [rising, single point]"
O=C(Cn1nc(Cc2cccnc2)c2ccccc2c1=O)NCC1CCCO1 (stereo unspecified),,"0.794 µM [rising, full curve, poor fit]"
Cc1ccc(NC(=S)N/N=C/c2c(C)[nH]c3ccccc23)cc1,"22.4 µM [falling, partial curve, poor fit]","20 µM [falling, partial curve, poor fit]"

# Copied from the list:
# Value of Cc1ccc(NC(=S)N/N=C/c2c(C)[nH]c3ccccc23)cc1 under AC50 [2]: 20 µM [falling, partial curve, poor fit]
# Value of O=C(Cn1nc(Cc2cccnc2)c2ccccc2c1=O)NCC1CCCO1 (stereo unspecified) under AC50 [2]: 0.794 µM [rising, full curve, poor fit]

# Reference: PubChem BioAssay AID1487 (National Center for Advancing Translational Sciences (NCATS), 2009)
